This is one part of the list.

Sequences of proteins named here, by UniProt entry; tags and fusion partners are left off. A change or cut given only in a name is not applied to a line headed by its entry.
UniProt Q15653: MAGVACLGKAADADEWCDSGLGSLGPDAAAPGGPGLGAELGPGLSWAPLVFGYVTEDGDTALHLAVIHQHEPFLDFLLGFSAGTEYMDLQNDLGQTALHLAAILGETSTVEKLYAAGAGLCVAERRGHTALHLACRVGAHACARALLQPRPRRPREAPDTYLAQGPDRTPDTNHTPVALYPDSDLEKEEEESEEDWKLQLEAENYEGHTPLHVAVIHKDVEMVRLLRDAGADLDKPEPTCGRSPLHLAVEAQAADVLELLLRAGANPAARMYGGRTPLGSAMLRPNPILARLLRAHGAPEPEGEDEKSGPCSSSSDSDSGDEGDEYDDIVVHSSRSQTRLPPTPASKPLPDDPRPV
UniProt Q8NBF2: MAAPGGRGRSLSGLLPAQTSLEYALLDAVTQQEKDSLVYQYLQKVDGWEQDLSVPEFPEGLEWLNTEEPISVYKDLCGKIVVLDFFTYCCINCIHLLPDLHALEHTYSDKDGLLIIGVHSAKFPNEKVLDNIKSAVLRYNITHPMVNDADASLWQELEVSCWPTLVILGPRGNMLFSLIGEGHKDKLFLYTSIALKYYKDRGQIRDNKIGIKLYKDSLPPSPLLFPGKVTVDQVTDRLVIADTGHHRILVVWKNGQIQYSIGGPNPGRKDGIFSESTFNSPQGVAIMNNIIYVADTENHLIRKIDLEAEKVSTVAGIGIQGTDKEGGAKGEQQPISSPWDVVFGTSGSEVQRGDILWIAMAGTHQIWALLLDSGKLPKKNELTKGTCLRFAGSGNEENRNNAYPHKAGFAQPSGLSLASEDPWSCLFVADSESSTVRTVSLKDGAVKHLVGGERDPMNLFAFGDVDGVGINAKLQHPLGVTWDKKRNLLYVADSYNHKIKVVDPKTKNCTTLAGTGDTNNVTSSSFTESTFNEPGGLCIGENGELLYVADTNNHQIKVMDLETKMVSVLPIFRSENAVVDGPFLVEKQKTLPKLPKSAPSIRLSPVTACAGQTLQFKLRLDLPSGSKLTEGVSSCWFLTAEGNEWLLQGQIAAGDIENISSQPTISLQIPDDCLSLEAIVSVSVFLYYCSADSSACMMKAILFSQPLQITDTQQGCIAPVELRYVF
UniProt Q96P26: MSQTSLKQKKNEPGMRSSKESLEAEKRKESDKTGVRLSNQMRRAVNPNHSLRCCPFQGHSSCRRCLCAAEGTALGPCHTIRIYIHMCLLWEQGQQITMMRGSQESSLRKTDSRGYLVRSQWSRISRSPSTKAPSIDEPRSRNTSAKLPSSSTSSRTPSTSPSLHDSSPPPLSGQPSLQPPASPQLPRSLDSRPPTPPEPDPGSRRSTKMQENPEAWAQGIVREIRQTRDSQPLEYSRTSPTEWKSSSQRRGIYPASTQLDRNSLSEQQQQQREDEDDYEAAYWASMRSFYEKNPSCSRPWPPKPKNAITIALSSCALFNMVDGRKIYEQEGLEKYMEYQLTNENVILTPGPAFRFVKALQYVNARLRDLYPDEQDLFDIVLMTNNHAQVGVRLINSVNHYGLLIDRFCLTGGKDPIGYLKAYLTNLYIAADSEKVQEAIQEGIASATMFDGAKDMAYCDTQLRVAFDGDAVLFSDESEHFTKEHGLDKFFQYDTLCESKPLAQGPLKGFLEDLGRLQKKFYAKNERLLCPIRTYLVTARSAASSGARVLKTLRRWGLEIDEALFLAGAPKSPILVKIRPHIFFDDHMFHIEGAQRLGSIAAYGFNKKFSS
UniProt Q01968: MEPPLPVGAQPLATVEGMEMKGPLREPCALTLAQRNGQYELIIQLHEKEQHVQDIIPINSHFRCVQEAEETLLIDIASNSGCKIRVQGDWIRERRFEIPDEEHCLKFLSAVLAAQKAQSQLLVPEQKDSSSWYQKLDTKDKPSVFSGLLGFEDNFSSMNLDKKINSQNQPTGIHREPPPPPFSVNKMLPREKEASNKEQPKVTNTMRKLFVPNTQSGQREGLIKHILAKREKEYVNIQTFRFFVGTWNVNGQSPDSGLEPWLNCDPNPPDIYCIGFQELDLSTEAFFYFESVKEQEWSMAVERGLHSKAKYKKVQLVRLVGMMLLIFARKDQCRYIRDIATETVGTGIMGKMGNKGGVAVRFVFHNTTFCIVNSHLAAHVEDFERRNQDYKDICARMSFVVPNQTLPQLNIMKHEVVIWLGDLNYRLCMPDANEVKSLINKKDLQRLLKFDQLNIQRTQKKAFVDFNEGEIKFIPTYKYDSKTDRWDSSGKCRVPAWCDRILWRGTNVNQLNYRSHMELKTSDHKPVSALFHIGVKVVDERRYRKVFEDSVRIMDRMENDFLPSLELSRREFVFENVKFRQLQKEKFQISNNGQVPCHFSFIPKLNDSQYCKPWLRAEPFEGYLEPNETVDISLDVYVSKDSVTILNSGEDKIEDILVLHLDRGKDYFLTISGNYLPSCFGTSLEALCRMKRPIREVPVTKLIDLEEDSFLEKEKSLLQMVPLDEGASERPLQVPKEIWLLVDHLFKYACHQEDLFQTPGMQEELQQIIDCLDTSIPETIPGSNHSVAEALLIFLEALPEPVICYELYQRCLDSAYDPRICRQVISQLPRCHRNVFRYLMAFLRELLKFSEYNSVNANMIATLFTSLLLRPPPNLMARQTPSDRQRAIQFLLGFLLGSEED
UniProt Q9HBL8: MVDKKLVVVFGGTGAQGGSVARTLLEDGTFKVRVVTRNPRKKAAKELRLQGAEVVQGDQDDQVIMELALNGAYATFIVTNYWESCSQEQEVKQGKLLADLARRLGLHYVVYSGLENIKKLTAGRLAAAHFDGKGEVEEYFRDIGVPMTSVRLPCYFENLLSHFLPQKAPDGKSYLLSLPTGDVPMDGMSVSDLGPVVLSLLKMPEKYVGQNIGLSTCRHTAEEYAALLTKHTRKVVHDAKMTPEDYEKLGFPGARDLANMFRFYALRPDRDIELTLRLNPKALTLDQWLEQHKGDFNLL
UniProt P49116: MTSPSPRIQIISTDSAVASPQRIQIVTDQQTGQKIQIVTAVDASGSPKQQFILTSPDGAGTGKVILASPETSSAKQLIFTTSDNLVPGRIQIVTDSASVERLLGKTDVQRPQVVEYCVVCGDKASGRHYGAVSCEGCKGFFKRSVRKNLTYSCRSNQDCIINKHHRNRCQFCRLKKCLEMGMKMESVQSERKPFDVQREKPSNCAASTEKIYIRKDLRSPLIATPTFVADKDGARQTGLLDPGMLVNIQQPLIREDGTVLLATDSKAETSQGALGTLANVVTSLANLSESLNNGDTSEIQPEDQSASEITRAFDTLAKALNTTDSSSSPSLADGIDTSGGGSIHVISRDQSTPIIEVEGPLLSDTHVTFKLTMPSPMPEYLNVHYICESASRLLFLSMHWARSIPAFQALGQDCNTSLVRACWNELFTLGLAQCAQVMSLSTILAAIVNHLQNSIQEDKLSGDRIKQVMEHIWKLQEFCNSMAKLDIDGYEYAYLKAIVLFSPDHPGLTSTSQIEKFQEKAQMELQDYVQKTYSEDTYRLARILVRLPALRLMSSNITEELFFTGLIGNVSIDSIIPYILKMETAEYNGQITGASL
UniProt Q6ZVK8: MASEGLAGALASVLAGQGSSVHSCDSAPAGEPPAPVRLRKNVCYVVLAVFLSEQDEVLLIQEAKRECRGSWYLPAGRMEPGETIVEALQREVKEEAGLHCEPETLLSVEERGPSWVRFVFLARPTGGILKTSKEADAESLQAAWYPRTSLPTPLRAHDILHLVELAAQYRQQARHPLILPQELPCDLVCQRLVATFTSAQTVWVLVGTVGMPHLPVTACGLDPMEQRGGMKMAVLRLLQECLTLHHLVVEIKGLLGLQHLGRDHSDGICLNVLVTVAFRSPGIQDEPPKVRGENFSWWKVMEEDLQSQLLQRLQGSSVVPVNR
UniProt Q9NXX6: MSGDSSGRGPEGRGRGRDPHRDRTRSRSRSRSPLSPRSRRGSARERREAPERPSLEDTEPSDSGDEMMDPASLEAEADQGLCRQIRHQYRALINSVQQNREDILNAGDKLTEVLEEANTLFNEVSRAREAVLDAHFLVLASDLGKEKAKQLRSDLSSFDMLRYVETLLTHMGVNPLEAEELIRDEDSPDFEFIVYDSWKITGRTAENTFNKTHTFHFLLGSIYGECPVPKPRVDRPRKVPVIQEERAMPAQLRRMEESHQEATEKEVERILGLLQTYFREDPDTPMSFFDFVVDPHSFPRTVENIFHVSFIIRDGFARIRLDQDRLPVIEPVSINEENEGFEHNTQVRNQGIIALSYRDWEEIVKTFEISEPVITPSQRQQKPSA
UniProt Q86XI2: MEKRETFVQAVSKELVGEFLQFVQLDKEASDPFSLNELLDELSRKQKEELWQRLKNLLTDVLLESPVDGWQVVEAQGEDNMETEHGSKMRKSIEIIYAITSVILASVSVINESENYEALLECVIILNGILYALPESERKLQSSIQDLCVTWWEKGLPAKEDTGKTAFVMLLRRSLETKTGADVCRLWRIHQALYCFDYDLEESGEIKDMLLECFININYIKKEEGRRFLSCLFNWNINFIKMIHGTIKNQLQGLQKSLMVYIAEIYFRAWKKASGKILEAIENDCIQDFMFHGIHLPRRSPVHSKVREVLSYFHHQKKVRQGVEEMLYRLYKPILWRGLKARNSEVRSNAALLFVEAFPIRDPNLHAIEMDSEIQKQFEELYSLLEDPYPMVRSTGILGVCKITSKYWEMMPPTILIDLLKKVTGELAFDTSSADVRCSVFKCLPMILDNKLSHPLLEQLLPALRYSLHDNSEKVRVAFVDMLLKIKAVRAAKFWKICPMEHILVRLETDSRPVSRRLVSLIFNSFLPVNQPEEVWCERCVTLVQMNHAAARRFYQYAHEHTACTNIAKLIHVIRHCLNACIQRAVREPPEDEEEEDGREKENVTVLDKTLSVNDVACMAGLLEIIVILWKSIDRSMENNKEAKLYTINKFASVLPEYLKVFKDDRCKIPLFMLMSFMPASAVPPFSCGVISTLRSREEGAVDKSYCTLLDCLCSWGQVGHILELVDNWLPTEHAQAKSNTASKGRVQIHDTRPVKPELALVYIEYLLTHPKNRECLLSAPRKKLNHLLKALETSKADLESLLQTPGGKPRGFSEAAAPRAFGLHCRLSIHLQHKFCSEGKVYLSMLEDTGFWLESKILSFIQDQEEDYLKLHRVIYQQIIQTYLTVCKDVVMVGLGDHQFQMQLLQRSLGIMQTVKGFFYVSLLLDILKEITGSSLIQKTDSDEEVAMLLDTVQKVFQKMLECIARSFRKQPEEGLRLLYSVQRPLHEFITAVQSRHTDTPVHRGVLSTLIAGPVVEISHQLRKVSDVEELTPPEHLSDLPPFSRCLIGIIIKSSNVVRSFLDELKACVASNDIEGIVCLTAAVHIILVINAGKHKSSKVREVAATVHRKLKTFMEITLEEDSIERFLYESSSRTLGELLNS
UniProt Q86X76: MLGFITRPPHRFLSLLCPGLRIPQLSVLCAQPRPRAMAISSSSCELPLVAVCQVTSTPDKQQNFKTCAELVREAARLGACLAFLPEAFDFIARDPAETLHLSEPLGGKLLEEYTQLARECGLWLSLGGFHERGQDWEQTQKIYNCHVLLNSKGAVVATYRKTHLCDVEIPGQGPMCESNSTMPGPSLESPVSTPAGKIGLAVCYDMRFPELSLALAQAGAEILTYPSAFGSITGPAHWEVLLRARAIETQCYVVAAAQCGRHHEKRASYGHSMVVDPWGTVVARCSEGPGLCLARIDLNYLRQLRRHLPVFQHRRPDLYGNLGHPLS
UniProt Q9UMS0: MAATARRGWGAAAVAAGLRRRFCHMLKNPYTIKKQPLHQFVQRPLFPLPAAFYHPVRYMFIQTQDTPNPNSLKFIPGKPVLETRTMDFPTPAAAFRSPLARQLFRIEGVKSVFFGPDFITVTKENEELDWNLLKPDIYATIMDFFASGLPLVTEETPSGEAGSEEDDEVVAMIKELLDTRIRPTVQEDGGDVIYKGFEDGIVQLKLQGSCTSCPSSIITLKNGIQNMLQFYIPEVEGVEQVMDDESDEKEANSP
UniProt O75489, whole entry: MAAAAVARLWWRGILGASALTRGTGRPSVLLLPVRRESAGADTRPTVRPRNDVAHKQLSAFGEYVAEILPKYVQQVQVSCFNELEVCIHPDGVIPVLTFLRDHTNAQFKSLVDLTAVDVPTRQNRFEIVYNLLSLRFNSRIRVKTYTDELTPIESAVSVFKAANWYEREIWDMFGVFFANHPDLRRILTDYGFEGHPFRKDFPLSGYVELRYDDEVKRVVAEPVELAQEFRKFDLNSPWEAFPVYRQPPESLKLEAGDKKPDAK
UniProt Q86WQ0: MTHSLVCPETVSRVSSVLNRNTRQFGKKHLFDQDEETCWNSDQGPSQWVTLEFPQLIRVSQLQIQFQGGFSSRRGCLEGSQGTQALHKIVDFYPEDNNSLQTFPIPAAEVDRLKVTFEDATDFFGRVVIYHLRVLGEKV
UniProt Q9GZZ1: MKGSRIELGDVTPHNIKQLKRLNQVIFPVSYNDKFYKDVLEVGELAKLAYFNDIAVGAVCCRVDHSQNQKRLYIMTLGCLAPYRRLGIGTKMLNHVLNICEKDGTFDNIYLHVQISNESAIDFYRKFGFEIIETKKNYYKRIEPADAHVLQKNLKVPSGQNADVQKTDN

Compound in the experiment: COc1ccc(Cn2ccc3cc(C)c(C(=O)NO)cc32)cc1
As to the kind of experiment: dose-dependent thermal stabilisation call (2D-TPP, DLPTP, 10% FDR) (binary (1 = stabilised)); higher = stabilised by the compound. As to conditions: system: HL-60 intact cells; concentration range 0.04-10 µM. The method, then: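 2D thermal proteome profiling in intact HL-60 cells treated with BRD-3811 (0, 0.04, 0.29, 2, 10 uM) for 90 min at 37 C, then heated 3 min at one of 12 temperatures (42-63.9 C). Soluble protein was quantified by TMT10 MS. The value is the DLPTP call of the paper: dose-dependent thermal stabilisation over all temperatures at 10% FDR (F-test of a dose-response against a flat model); one experiment, one call per tested protein.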
As for NCAPD3 (UniProt P42695), the “dose-dependent thermal stabilisation call” value was inactive: 0.

For the target NSBP1 (UniProt P82970), the “dose-dependent thermal stabilisation call” value is inactive: 0.

For NFS1 (UniProt Q9Y697), the “dose-dependent thermal stabilisation call” value was inactive: 0.

For NFKBIB (UniProt Q15653), the “dose-dependent thermal stabilisation call” value is inactive: 0.

Regarding NUP88 (UniProt Q99567), the “dose-dependent thermal stabilisation call” value is inactive: 0.

For NHLRC2 (UniProt Q8NBF2), the “dose-dependent thermal stabilisation call” value was inactive: 0.

On to NUBP1 (UniProt P53384), for which the “dose-dependent thermal stabilisation call” value is inactive: 0.

As to NT5C1B (UniProt Q96P26), the “dose-dependent thermal stabilisation call” value is inactive: 0.

Consider NFRKB (UniProt Q6P4R8), for which the “dose-dependent thermal stabilisation call” value was inactive: 0.

Turning to NOM1 (UniProt Q5C9Z4), the “dose-dependent thermal stabilisation call” value was inactive: 0.

OCRL (UniProt Q01968): the “dose-dependent thermal stabilisation call” value is inactive: 0.

NDC80 (UniProt O14777): the “dose-dependent thermal stabilisation call” value is inactive: 0.

With NAMPT (UniProt P43490), the “dose-dependent thermal stabilisation call” value was inactive: 0.

On to NMRAL1 (UniProt Q9HBL8), for which the “dose-dependent thermal stabilisation call” value was inactive: 0.

In the case of NSUN2 (UniProt Q08J23), the “dose-dependent thermal stabilisation call” value is inactive: 0.

Consider NVL (UniProt O15381), for which the “dose-dependent thermal stabilisation call” value was inactive: 0.

Take NPLOC4 (UniProt Q8TAT6): the “dose-dependent thermal stabilisation call” value is inactive: 0.

For NR2C2 (UniProt P49116), the “dose-dependent thermal stabilisation call” value is inactive: 0.

On to NUDT18 (UniProt Q6ZVK8), for which the “dose-dependent thermal stabilisation call” value is inactive: 0.

On to NSMCE4A (UniProt Q9NXX6), for which the “dose-dependent thermal stabilisation call” value was inactive: 0.

As to NCAPG2 (UniProt Q86XI2), the “dose-dependent thermal stabilisation call” value is inactive: 0.

As to NIT1 (UniProt Q86X76), the “dose-dependent thermal stabilisation call” value is inactive: 0.

NSFL1C (UniProt Q9UNZ2): the “dose-dependent thermal stabilisation call” value is inactive: 0.

In the case of NUP133 (UniProt Q8WUM0), the “dose-dependent thermal stabilisation call” value is inactive: 0.

Turning to NGLY1 (UniProt Q96IV0), the “dose-dependent thermal stabilisation call” value is inactive: 0.

For the target NCBP2 (UniProt P52298), the “dose-dependent thermal stabilisation call” value was inactive: 0.

Take NEK3 (UniProt P51956): the “dose-dependent thermal stabilisation call” value was inactive: 0.

As for NFU1 (UniProt Q9UMS0), the “dose-dependent thermal stabilisation call” value was inactive: 0.

On to NFXL1 (UniProt Q6ZNB6), for which the “dose-dependent thermal stabilisation call” value is inactive: 0.

In the case of NDUFS3 (UniProt O75489), the “dose-dependent thermal stabilisation call” value was inactive: 0.

Consider NECAP2 (UniProt Q9NVZ3), for which the “dose-dependent thermal stabilisation call” value was inactive: 0.

As for NOP5/NOP58, the “dose-dependent thermal stabilisation call” value was inactive: 0.

Regarding NR2C2AP (UniProt Q86WQ0), the “dose-dependent thermal stabilisation call” value was inactive: 0.

With NHSL1 (UniProt Q5SYE7), the “dose-dependent thermal stabilisation call” value is inactive: 0.

NXF3 (UniProt Q9H4D5): the “dose-dependent thermal stabilisation call” value was inactive: 0.

As to NAT13 (UniProt Q9GZZ1), the “dose-dependent thermal stabilisation call” value is inactive: 0.
